According to patent publication US20160108110A1 (Novartis, published 2016):
Results are given in words; binding and its absence hold for the method and conditions named. Some results given as binding are weak or reduced against the parent protein; the word gives no strength. Tags and fused reporters may be left off the sequences shown.

B1: MOR021800 (antibody, human IgG1, lambda, V domains shown)
VH: QVQLVQSGAEVKKPGESLKISCKGSGYSFSTYWISWVRQMPGKGLEWMGIIDPSNSDTRYSPSFQGQVTISADKSISTAYLQWSSLKASDTAMYYCARVYGYVYMDVWGQGTLVTVSS
VL: DIELTQPPSVSVSPGQTASITCSGDNLGKKYAYWYQQKPGQAPVLVIYDKTKRPSGIPERFSGSNSGNTATLTISGTQAEDEADYYCASYDWYSSSYVFGGGTKLTVLG
notes: human IgG1
B2: MOR021823 (antibody, human IgG1, kappa, V domains shown)
VH: QVQLLESGGGLVQPGGSLRLSCAASGFTFSSYYLHWVRQAPGKGLEWVSYISGDGSSTYYADSVKGRFTISRDNSKNTLYLQMNSLRAEDTAVYYCARERSYAHDHWGQGTLVTVSS
VL: DIQMTQSPSSLSASVGDRVTITCRASQDIYIDLNWYQQKPGKAPKLLIYAASKLQSGVPSRFSGSGSGTDFTLTISSLQPEDFATYYCQQGYFLPQTFGQGTKVEIKR
notes: human IgG1
B3: MOR021830 (antibody, human IgG1, kappa, V domains shown)
VH: QVQLLESGGGLVQPGGSLRLSCAASGFTFSSYWMHWVRQAPGKGLEWVSGISYDGSSTNYADSVKGRFTISRDNSKNTLYLQMNSLRAEDTAVYYCARDSYIYDLHWGFDNWGQGTLVTVSS
VL: DIQMTQSPSSLSASVGDRVTITCRASQDISSYLNWYQQKPGKAPKLLIYAASRLQSGVPSRFSGSGSGTDFTLTISSLQPEDFATYYCQQSYTHPYTFGQGTKVEIKR
notes: human IgG1
B4: MOR021792 (antibody, human IgG1, lambda, V domains shown)
VH: QVQLLESGGGLVQPGGSLRLSCAASGFTFSDYAMDWVRQAPGKGLEWVSKISYDGSYTYYADSVKGRFTISRDNSKNTLYLQMNSLRAEDTAVYYCARPSMSYYIIPAGFDVWGQGTLVTVSS
VL: DIELTQPPSVSVSPGQTASITCSGDALGVKRASWYQQKPGQAPVLVIYKDNNRPSGIPERFSGSNSGNTATLTISGTQAEDEADYYCSVRTWSMNLYVFGGGTKLTVLG
B5: MOR021795 (antibody, human IgG1, lambda, V domains shown)
VH: QVQLVQSGAEVKKPGSSVKVSCKASGGTFNSYAISWVRQAPGQGLEWMGGIIPLFGFANYAQKFQGRVTITADESTSTAYMELSSLRSEDTAVYYCARESYDPYAFDVWGQGTLVTVSS
VL: DIELTQPPSVSVSPGQTASITCSGDNLGKYSASWYQQKPGQAPVLVIHQDNNRPSGIPERFSGSNSGNTATLTISGTQAEDEADYYCASRAHSMHVVFGGGTKLTVLG
notes: human IgG1
B6: MOR021798 (antibody, human IgG1, lambda, V domains shown)
VH: QVQLLESGGGLVQPGGSLRLSCAASGFTFSDYALHWVRQAPGKGLEWVSRISYMGSSTYYADSVKGRFTISRDNSKNTLYLQMNSLRAEDTAVYYCAREHYYSSPMGGVAVDNWGQGTLVTVSS
VL: DIVLTQPPSVSGAPGQRVTISCSGSSSNIGYNTVSWYQQLPGTAPKLLIYSNNIRPSGVPDRFSGSKSGTSASLAITGLQAEDEADYYCSSWDFLIKSLVFGGGTKLTVLG
notes: human IgG1

Target: T1, Human ANGPTL4(26-161)-FLAG-His6-Avi (human)
T1 sequence (chain, biotin on the C-terminal Avi tag in the biotinylated preparation (ELISA)): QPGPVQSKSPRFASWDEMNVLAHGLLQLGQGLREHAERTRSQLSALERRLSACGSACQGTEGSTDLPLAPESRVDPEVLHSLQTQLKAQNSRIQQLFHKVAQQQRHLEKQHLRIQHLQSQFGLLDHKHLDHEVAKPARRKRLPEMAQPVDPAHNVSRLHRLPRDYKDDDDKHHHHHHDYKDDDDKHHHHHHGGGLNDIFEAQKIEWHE
Test: direct ELISA on streptavidin-coated MSD plate: biotinylated antigen immobilised at 1 nM, antibody at 1 nM, detection with Sulfo-tagged goat anti-human IgG

binding, binds:
B1, B2, B3, B4, B5, B6
